Data reported in patent US10072233B2, “Fragrance and flavor compositions comprising neopentyl glycol diacetate” (P2 SCIENCE, INC., priority 2015, dated 2018).

Test: Olfactory analysis on a fragrance blotter
Description: The aroma of neopentyl glycol diacetate may be evaluated by testing the compound on a fragrance blotter, a small strip of paper used to sample the compound in aqueous form. Rather than smell a fragrance ingredient directly from the vial in which it is contained, fragrance blotters are used to provide a more accurate representation of the smell of a given fragrance ingredient. The aroma at the surface of a vial containing a fragrance ingredient is mostly comprised of the aroma's top notes, which are strong, but evaporate quickly. Use of a fragrance blotter therefore provides a better indication of the overall scent of neopentyl glycol diacetate, including its middle, and base notes, which makes up the majority of the odor experienced from an ingredient once it has been imparted in a product.
Aqueous neopentyl glycol diacetate prepared by the method of Example 1 was sampled on a fragrance blotter to assess the compound's aroma.
Neopentyl glycol diacetate was first presented on a blotter neat.
A 10% dilution in triethylcitrate of neopentyl glycol diacetate synthesized by the method of Example 1 was then prepared and sampled on a blotter. […] The tenacity on the blotter was on the order of 5-10 hrs.

## CC(=O)OCC(C)(C)COC(C)=O [neopentyl glycol diacetate]
10% dilution in triethylcitrate
  aroma on fragrance blotter: pleasing aromatic effect
10% dilution in triethylcitrate, the aroma's ability to be detected over a given time period
  tenacity on the blotter: 5 to 10 h
Presented neat on a blotter
  aroma on fragrance blotter: fresh, sweet, fruity, resinous, and myrrh-like, with notes of fattiness
Presented neat on a blotter, listed as Neopentyl glycol diacetate
  aroma on fragrance blotter: sweet and described as fresh, fruity, resinous, and myrrh-like, with notes of fattiness
